Our source for the activity change values is PubChem BioAssay AID977622 (Broad Institute, 2014).

The other results are listed elsewhere or left out. Shown are side measurements of this screen, not its main read-out; they come without a call.

The nature of test [1]: wild-type E. coli growth inhibition versus h38 humanized strain – h38 mutant RFP, wild-type GFP, cherry-pick, dose response (AID 977622). The following applies: E. coli mixed culture, 24 h, total growth OD600 at 50 uM.
For test [2], the system named is E. coli h38 humanized mutant ribosome RFP fluorescence, mixed culture, 24 h. The test is described as above. The settings on record: h38 mutant RFP at 50 uM.

With `O=S(=O)(c1ccccc1)N1C[C@H]2[C@@H](c3ccccc31)[C@@H](CO)N2Cc1ccccc1`, the activity change in test [1] was -39.8%; in test [2], 13.3%. For `O=C(Nc1ccncc1)c1ccc(S(=O)(=O)Nc2ccccc2)cc1`, in that order: -42.5% and -36.5%.

For the compound `Cc1nn(C)cc1NC(=O)C[C@@H]1CC[C@@H]2[C@@H](COc3ccc(NC(=O)C4CCC4)cc3C(=O)N2C)O1`, the activity change stood at 7.51% in test [1] and 49.1% in test [2]. `Cn1nc(C(C)(C)C)c([N+](=O)[O-])c1C(=O)Nc1ccc(Br)cc1`: the activity change in test [1] was -49.4%. For `CCCc1nc(SCC(=O)N2CCc3ccccc3C2)c2ccccc2n1`, the activity change is -74.5% in test [1] and 16.6% in test [2]. For `O=C(O)CCN(Cc1ccccc1)S(=O)(=O)c1ccccc1Cl`, in that order: -15.7% and -13.3%. For `O=S(=O)(c1cccs1)N1CCCCN2[C@@H](CO)[C@@H](c3ccc(C4=CCCC4)cc3)[C@@H]2C1`, in that order: -76% and -38.7%. Consider `COc1cc(CC(=O)Nc2nc(C)cs2)cc(OC)c1OC`, for which, in test [1], the activity change was -1.1%. Regarding `CCn1c(-c2cc(-c3ccc(OC(C)C)cc3)nc3ccccc23)n[nH]c1=S`, the activity change in test [2] was 2.44%. Consider `CN1OC[C@@H]2CN(C(=O)c3ccco3)[C@H](c3ccc(-c4ccc(C#N)cc4)cc3)C[C@@H]21`, for which the activity change was -14.5% in test [1] and -16% in test [2].

For the compound `Clc1ccc(-c2cn(-c3ccc(Cl)cc3)c3[n+]2CCCCC3)cc1`, the activity change in test [1] is -41.8%. Consider `Cc1cccc(-c2ccc([C@@H]3[C@H](CO)N4CCCCN(S(=O)(=O)c5cccc(C)c5)C[C@@H]34)cc2)c1`, for which the values for the activity change in test [1] and in test [2] were -45.1% and -38%, respectively. As for `O=S(=O)(Nc1ccccc1Cl)c1ccc(-c2ccccn2)s1`, the figures for the activity change in test [1] and in test [2] were -49.8% and -24.3%, respectively.

`O=C(Nc1ccc2c(c1)OCO2)c1cccc(S(=O)(=O)N2CCCC2)c1`: the activity change is -17% in test [1] and -8.35% in test [2]. For the compound `CCN(C(=O)c1ccnc(C(C)(C)C)c1)c1ccccc1`, the activity change in test [1] is -33.6%; in test [2], -0.566%. On to `COc1ccc(CNC(=O)CSCc2c(F)cccc2Cl)cc1`, for which the activity change in test [1] was -4.45%; in test [2], -2.93%. The like results for `CCc1cccc(NC(=O)CCC(=O)N2CCSc3ccccc32)c1` were, in that order, -59.4% and -2.67%. Take `COc1ccc(Cn2c(-c3ccc(Cl)cc3)c[n+]3ccccc23)cc1`: the activity change in test [1] is -23.6%.

Consider `CCc1cc2c(=O)n(Cc3ccccc3)c(SC3CCOC3=O)nc2s1` (centres undefined), for which the results for the activity change in test [1] and in test [2] were -45.7% and -40.1%, respectively. Consider `C[C@@H]1CN([C@@H](C)CO)C(=O)c2cc(NC(=O)Nc3cccc4ccccc34)ccc2O[C@@H](C)CCCCO[C@@H]1CN(C)C`, for which the activity change in test [1] was -23.3%; in test [2] it was 8.77%.

As for `CC1(Cc2ccccc2C#N)C(=O)Nc2cc(-c3ccccc3Cl)ccc21` (centres undefined), the activity change in test [1] is -44.9%; in test [2] it was 5.48%.

With `Cc1c(C(=O)NCCSCc2cccc(C(F)(F)F)c2)cnn1-c1ccc(F)cc1`, the activity change in test [1] is -88.4%. Take `O=[N+]([O-])c1ccc(NCCNCCOc2nonc2-c2ccccc2)c([N+](=O)[O-])c1`: the activity change in test [1] was -3.37%; in test [2], 0.68%. For `O=C(NCc1ccco1)c1ccc(COc2cccc3ccccc23)cc1`, the figures for the activity change in test [1] and in test [2] were -15.3% and -11.6%, respectively. The like results for `COc1cccc(S(=O)(=O)N2CCCCN3[C@H](CO)[C@H](c4ccc(C#CC(C)C)cc4)[C@@H]3C2)c1` were, in that order, -23.3% and 33.5%. For `COc1cc2c(cc1[N+](=O)[O-])-c1ccc([N+](=O)[O-])cc1C2`, in that order: -32.4% and 42.9%. For `Cc1cc(C(=O)OCC(=O)Nc2cccc(S(N)(=O)=O)c2)c2ccccc2n1`, in that order: -21% and -20%. With `CSc1nnnn1-c1ccc(Cl)cc1`, the activity change in test [1] is -7.23%; in test [2] it was -25.2%. Turning to `O=C(Cc1coc2cc(O)ccc12)N1CCN(S(=O)(=O)c2ccc(Br)cc2)CC1`, the activity change in test [1] was -57.5%; in test [2] it was -10.5%. Take `Cc1noc(C)c1COc1cccc(C(=O)N2CCc3ccccc32)c1`: the results for the activity change in test [1] and in test [2] were -24.5% and 4.61%, respectively.

On to `Cc1nn(-c2ccccc2)c(C)c1CN(C)C(=O)c1ccc(S(=O)(=O)NCc2ccco2)cc1`, for which the activity change was -56.8% in test [1] and 0.622% in test [2]. Take `O=C(O)c1cc(S(=O)(=O)N2CCN(C(c3ccccc3)c3ccccc3)CC2)ccc1Cl`: the activity change in test [1] is -38.3%. The same measure, in the same setting: the value for `S=c1[nH]nc(-c2ccc(Br)cc2)n1-c1ccc2c(c1)OCCO2` was -75.2%. For `CN(Cc1nnc(-c2ccc(F)cc2)o1)c1ccccc1`, the values for the activity change in test [1] and in test [2] were -31.2% and 22.5%, respectively. For `O=C1c2cccc3cccc(c23)C(=O)N1CCCn1ccnc1`, in that order: -45.1% and 3.62%. For the compound `COc1cc(OC)cc(C(=O)Nc2ccc(C(=O)Nc3ccccc3OC)cc2)c1`, the activity change was -18.7% in test [1] and -4.87% in test [2].

Turning to `COCCN(C(=O)c1ccccc1F)c1nnc(-c2ccc(OC)cc2)s1`, the activity change in test [1] is -8.78%; in test [2] it was -3.65%. The like results for `C=C1SC(Nc2c(C)cc(C)cc2C)=NC12CCCCC2` were, in that order, -79% and -53.9%. Take `COC(=O)c1ccc(OS(=O)(=O)c2ccc(NC(C)=O)cc2)cc1`: the activity change in test [1] is -28%.

In the case of `CCC(C(=O)NCCc1ccc(C)cc1)n1nc(C)c2c(C)n(-c3ccccc3)nc2c1=O` (centres undefined), the values for the activity change in test [1] and in test [2] were -4.61% and 4.35%, respectively. For `Cc1ccccc1OCc1nc2ccccc2n1C`, in that order: 1.02% and 23.5%. For `Nc1ccc(C(=O)OCC(=O)N2CCc3ccccc3C2)cc1[N+](=O)[O-]`, in that order: -48.1% and -32.7%.

For `CCN(CC)CCN(C(=O)c1ccc2c(c1)OCCO2)c1nc2cc(C)cc(C)c2s1`, the activity change in test [1] was -44.3%; in test [2] it was -8.22%.

`O=C(O)c1cc([N+](=O)[O-])ccc1NCc1ccccc1`: the activity change in test [1] is -70.4%; in test [2], 6.33%.
